These are yes or no findings as the source states them, for the method shown. Binding seen in cells or lysates may run through a third protein. Binding can be weak; no strength is given.
Molecular target: VDAC1 (mouse (endogenous in cardiomyocytes/heart of C57BL/6JOlaHsd mice)) (UniProt Q60932)
Experiment: proximity ligation; in situ PLA in isolated adult mouse cardiomyocytes from SD and HFHSD mice at 16 weeks of diet; interactions per cell counted by confocal microscopy, as fold of SD

Chains of the proteins cited; added tags and fusions are not shown. Lines headed by an entry give the natural chain unless they say otherwise; changes in a name come on top. Residues count along the entry.
UniProt Q60932: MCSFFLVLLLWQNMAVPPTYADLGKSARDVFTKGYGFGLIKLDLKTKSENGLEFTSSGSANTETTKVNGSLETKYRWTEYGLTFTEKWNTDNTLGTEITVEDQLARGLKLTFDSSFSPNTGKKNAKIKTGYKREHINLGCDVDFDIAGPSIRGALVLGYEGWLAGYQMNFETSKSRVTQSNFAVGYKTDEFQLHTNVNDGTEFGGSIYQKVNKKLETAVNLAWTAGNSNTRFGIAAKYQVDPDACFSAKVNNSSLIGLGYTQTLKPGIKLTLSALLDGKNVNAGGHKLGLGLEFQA
UniProt Q3UMR5, residues 50-350: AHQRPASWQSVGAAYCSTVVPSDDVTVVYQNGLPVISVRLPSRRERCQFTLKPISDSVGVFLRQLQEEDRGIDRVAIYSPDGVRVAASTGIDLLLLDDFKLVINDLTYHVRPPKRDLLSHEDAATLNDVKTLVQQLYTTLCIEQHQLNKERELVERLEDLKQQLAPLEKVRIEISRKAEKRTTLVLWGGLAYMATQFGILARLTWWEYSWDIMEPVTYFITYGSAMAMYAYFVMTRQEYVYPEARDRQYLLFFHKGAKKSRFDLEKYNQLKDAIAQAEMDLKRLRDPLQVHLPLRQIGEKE

MCU (from UniProt Q3UMR5 50-350)
binding: binds

Source: paper PMC7704523
